In all, about 300,000 compounds went through this assay and about 3,700 (1.2%) were called active. Inconclusive means that the source gave no clear call. Such entries were picked first, then a sample of the others. The call rests on the fitted dose curve; tested in HEK293 cells. A potency beside an inconclusive call is a rough fit, not a confirmed value.
Assay: qHTS for Inhibitors of binding or entry into cells for Lassa Virus; further: nearly all actives have a fitted effect of over 50% in size
Conditions: Lassa virus pseudotype entry inhibition, cell reporter; series mostly up to 37.9 µM
In the case of CCOC(=O)c1nn(-c2ccc(OC)cc2)c(=O)c2c(N)scc12, the Potency is reported as inconclusive: 6.51 µM [inhibitor, full curve, poor fit].
With CCn1nnc2cc(C(=O)Nc3ccc(OC)cc3)ccc21 the Potency was “inactive”.
For CC(=O)n1nc(-c2ccc(C)cc2)nc1NCc1ccco1, the Potency was “inactive”.
With Cc1nc(SCC(=O)Nc2nc3ccccc3s2)c(C#N)c(C)c1C the Potency was inconclusive: 0.103 µM [inhibitor, full curve].
For COc1ccc(-n2c(=O)c3c4c(sc3n(Cc3ccc(C(C)(C)C)cc3)c2=O)CCC4)c(OC)c1, the Potency was inconclusive: 3.98 µM [inhibitor, partial curve, poor fit].
With CCOC(=O)Nc1ccc2c(c1)N(C(=O)N(CC)CC)c1ccccc1CC2 the Potency was inconclusive: 17.8 µM [inhibitor, single point].
In the case of O=C(CCCOc1ccc(Cl)cc1Cl)NCCc1nnc2ccccn12, the Potency is reported as “inactive”.
In the case of CC(=O)Nc1ccc(OCc2nnc(-c3ccccc3)o2)cc1, the Potency is reported as “inactive”.
For O=C(O)c1ccc2cccc(O)c2n1, the Potency was “inactive”.
In the case of CN1C(=O)C2(NCCc3c2[nH]c2ccccc32)c2ccccc21 (stereo not drawn), the Potency is reported as “inactive”.
In the case of C=CCN1C(=O)/C(=C/C(=O)OC)S/C1=N\NC(=O)c1ccccc1, the Potency is reported as inconclusive: 15.8 µM [inhibitor, single point].
In the case of COc1cc2c(cc1OC)C(c1cc3cc4c(cc3[nH]c1=O)OCO4)N(C(=O)C1CC1)CC2 (stereo not drawn), the Potency is reported as inconclusive: 18.3 µM [inhibitor, partial curve, poor fit].
For COc1ccc(NC(=O)c2c(C)oc3ccc(O)c(CN4CCCCCC4)c23)cc1, the Potency was inconclusive: 20 µM [inhibitor, single point].
For COC1=C(N)C(=O)c2nc(-c3nc(C(=O)O)c(C)c(-c4ccc(OC)c(OC)c4O)c3N)ccc2C1=O, the Potency was active: 0.082 µM.
For O=C1CC(NS(=O)(=O)c2cccnc2)CN1c1ccc(Cl)cc1 (stereo not drawn), the Potency was “inactive”.
With Cc1ccc(C(=O)N2CCCN(c3nc4cc5c(cc4cc3C#N)OCO5)CC2)cc1 the Potency was inconclusive: 35.5 µM [inhibitor, single point].
For COc1cc(/C=C2\C(=O)NC(=O)N(CCc3ccc(F)cc3)C2=O)ccc1O, the Potency was inconclusive: 11.2 µM [activator, partial curve, poor fit].
With Cc1ccc(-c2ccc(CCC(=O)O)n2-c2cccc(C)c2C)cc1 the Potency was inconclusive: 39.8 µM [activator, single point].
With Cn1cc(C(=O)NCc2ccc(F)cc2)cn1 the Potency was “inactive”.
With CCc1c(C)sc(NC(=O)OC)c1C(N)=O the Potency was “inactive”.
In the case of CN1CCCN(C2C3CC4CC(C3)CC2C4)CC1 (stereo not drawn), the Potency is reported as inconclusive: 16.4 µM [inhibitor, single point].
In the case of CC/C(=N\NC(=O)c1ccoc1C)c1ccc(C)o1, the Potency is reported as inconclusive: 29.1 µM [inhibitor, single point].
For COC(=O)Nc1ccc(Oc2ccccc2)cc1, the Potency was “inactive”.
With CCn1c(Oc2ccccc2)nc2c1c(=O)n(C)c(=O)n2C the Potency was “inactive”.
For C=CCNC(=S)Nc1ccc(C(N)=O)cc1, the Potency was “inactive”.
For Cn1c(=O)n(C)c2cc(S(=O)(=O)NCc3ccccc3)ccc21, the Potency was inconclusive: 10 µM [inhibitor, partial curve, poor fit].
For NS(=O)(=O)c1cccc(NC(=O)COC(=O)CCc2ccccc2)c1, the Potency was “inactive”.
With Fc1ccc(Nc2c(-c3ccccn3)nc3ccc(Cl)cn23)cc1 the Potency was “inactive”.
In the case of Cc1ccc(Cn2ccc(NC(=O)c3cc(-c4ccc(Br)cc4)on3)n2)cc1, the Potency is reported as “inactive”.
In the case of Cc1ccc(Nc2nc3ccccc3c(=O)s2)cc1C, the Potency is reported as “inactive”.
With CCOc1cccc(C(=O)NC(=S)Nc2cccnc2)c1 the Potency was inconclusive: 0.708 µM [inhibitor, single point].
With O=C(Nc1ccc2ccccc2c1)C(c1ccccc1)C1CCCC1 (stereo not drawn) the Potency was active: 2.59 µM.
For CCOCCCNC(=O)c1c(NC(=O)c2nc(SC)ncc2Cl)sc2c1CCCC2, the Potency was inconclusive: 14.1 µM [activator, single point].
With Cc1cn2c(=O)cc(COC(=O)c3ccc(NC(=O)C(C)Oc4ccccc4)cc3)nc2s1 (stereo not drawn) the Potency was inconclusive: 28.2 µM [inhibitor, single point].
With COc1ccc(N2CCN(CCCn3c(=S)[nH]c4ncccc4c3=O)CC2)cc1 the Potency was inconclusive: 32.6 µM [inhibitor, single point].
For O=C(c1ccc(F)cc1)N1CCN(c2ccccn2)CC1, the Potency was “inactive”.
For CCc1ccc(-n2nc(CO)c(C(=O)NCc3cccs3)n2)cc1, the Potency was inconclusive: 5.62 µM [inhibitor, full curve, poor fit].
For Cc1c(/C=C/C(=O)c2ccc(C(C)C)cc2)cnn1C, the Potency was inconclusive: 28.2 µM [inhibitor, single point].
In the case of Cc1ccc(OCC(=O)NNC(=O)c2cccnc2)cc1, the Potency is reported as “inactive”.
With Cc1ccc(NC(=O)c2ccc(Nc3c([N+](=O)[O-])cc([N+](=O)[O-])cc3[N+](=O)[O-])cc2)cc1 the Potency was inconclusive: 29.1 µM [inhibitor, single point].
In the case of COc1ccc(OCC2c3cc(OC)c(OC)cc3CCN2C(=O)c2c(F)cccc2F)cc1 (stereo not drawn), the Potency is reported as inconclusive: 20 µM [inhibitor, single point].
In the case of COCCN(C(=O)COC(=O)CCOc1cc(C)ccc1C)c1c(N)n(Cc2ccccc2)c(=O)[nH]c1=O, the Potency is reported as “inactive”.
With NS(=O)(=O)c1ccc(NC(=O)c2csnn2)cc1 the Potency was inconclusive: 11.2 µM [activator, single point].
With CCOC(=O)c1nnn(-c2ccccc2)c1C the Potency was inconclusive: 5.17 µM [activator, partial curve, poor fit].
With CCN1CCN(c2nc(Nc3cccc(C)c3)nc(N)c2[N+](=O)[O-])CC1 the Potency was inconclusive: 32.6 µM [inhibitor, partial curve, poor fit].
For Cc1cc(=O)oc2c3c(cc(OCC(=O)N[C@@H](CC(C)C)C(=O)O)c12)OC(C)(C)CC3, the Potency was inconclusive: 31.6 µM [activator, single point].
In the case of Cc1cc(C)cc(NC(=O)COCc2cc(-c3ccc4c(c3)OCO4)on2)c1, the Potency is reported as “inactive”.
For CC(=O)Nc1c(C(=O)O)[nH]c2ccccc12, the Potency was “inactive”.
Potency means the concentration at half of the fitted maximal effect.
